{"sequences": {"note": "The chains behind the UniProt entries cited, without tags or fusion partners. Residues count along the entry.", "UniProt O00206, residues 24-839": "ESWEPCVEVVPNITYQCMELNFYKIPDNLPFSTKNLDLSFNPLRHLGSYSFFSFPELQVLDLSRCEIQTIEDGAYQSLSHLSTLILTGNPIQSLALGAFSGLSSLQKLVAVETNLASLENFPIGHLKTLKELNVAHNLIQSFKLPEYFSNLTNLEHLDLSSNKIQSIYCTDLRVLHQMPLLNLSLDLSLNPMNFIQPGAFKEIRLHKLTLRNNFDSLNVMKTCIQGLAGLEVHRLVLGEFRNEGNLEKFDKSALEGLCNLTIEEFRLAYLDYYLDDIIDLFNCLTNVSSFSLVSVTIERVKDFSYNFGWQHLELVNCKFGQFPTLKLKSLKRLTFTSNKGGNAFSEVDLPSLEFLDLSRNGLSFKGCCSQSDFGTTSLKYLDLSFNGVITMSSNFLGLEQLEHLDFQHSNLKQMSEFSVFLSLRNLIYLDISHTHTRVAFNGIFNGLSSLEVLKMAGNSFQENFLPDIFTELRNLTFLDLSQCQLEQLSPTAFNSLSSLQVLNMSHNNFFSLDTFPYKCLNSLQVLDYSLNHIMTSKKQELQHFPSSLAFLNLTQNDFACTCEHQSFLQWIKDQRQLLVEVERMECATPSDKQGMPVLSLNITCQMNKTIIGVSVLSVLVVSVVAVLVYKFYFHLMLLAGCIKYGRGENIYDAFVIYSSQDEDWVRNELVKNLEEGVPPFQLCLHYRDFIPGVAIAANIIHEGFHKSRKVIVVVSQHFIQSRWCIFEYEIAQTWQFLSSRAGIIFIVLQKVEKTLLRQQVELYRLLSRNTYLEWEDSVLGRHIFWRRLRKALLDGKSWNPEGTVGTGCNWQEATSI"}, "source": "paper PMC4383338", "key": {"[1]": {"molecular_target": "T1, FLAG-SREC-I (scavenger receptor associated with endothelial cells I) (human) (UniProt Q14162)", "T1 sequence": "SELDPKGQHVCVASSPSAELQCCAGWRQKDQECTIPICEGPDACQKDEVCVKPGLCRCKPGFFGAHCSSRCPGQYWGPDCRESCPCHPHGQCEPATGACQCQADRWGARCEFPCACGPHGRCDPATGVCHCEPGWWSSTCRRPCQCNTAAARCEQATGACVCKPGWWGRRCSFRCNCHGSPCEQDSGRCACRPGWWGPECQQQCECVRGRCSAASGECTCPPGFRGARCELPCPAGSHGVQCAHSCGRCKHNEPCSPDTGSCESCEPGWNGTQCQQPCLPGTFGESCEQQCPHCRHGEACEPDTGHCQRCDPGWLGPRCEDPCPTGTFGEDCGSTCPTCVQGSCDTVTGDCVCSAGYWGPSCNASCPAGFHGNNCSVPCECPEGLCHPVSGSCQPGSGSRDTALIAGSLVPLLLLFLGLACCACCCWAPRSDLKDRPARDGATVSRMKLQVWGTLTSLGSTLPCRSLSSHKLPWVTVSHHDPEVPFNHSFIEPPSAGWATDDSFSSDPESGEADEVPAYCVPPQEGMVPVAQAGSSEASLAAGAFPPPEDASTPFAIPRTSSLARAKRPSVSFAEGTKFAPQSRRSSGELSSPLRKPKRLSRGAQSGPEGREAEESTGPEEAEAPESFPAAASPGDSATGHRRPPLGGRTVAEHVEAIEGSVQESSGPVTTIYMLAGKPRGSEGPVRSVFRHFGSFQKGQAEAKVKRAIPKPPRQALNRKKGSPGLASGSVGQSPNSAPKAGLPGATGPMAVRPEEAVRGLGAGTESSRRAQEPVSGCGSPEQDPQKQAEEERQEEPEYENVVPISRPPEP", "test": "co-IP; HEK 293 cells expressing FLAG-SREC-I and TLR4, control, unstimulated (no LPS, no Hsp90); NP-40 lysis buffer (1% Nonidet P-40, 150 mM NaCl, 1 mM EDTA); FLAG-SREC-I immunoprecipitated with FLAG antibody, blotted for TLR4"}, "[2]": {"molecular_target": "T1, FLAG-SREC-I (scavenger receptor associated with endothelial cells I) (human)", "test": "condition: only unstimulated cells, without LPS or Hsp90; co-IP; HEK 293 cells expressing FLAG-SREC-I and TLR4, control, unstimulated (no LPS, no Hsp90); NP-40 lysis buffer (1% Nonidet P-40, 150 mM NaCl, 1 mM EDTA); FLAG-SREC-I immunoprecipitated with FLAG antibody, blotted for TLR4"}}, "note": "No constants are given. Whether binding was seen depends on the method and setting. Binding seen in cells or lysates may run through a third protein. Some binding calls cover weakened binding; strength is not graded here. Where a sequence is shown, tags or fusion partners need not be part of it.", "data": [{"substance": "Toll-like receptor 4 (TLR4) (from UniProt O00206 24-839)", "values": [{"measurement": "binding", "setting": "[1]", "value": "binds weakly"}, {"measurement": "binding", "setting": "[2]", "value": "no binding"}]}]}
